Laboratory results as given in the supplement of paper PMC4604168 (melanoma cell lines).
The list shows a part of the results. Many values rest on one well or one pass, so single values are uncertain.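 The apoptosis fraction was the count of cleaved-PARP antibody-stained nuclei relative to all DNA-stained nuclei, imaged in 1,536-well plates. Screening doses were set so most cells survived, and baseline and induced cleaved-PARP levels vary greatly across cell lines.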

System: SkMel5
Test: cleaved PARP positive nuclei fraction relative to DMSO control; melanoma cells; higher = more apoptosis
Settings: library dose: low library concentration; 72 h

Structure (SMILES)	cleaved PARP positive nuclei fraction [%]
Cc1cn(-c2cc(NC(=O)c3ccc(C)c(Nc4nccc(-c5cccnc5)n4)c3)cc(C(F)(F)F)c2)cn1 [nilotinib] + Cc1ccc(NC(=O)c2cccc(N(C)C)c2)cc1NC(=O)c1ccc(O)cc1 [ZM336372] (first compound 0.2 µM, partner dose 2 µM)	40.3
CC[C@]1(O)C[C@H]2CN(CCc3c([nH]c4ccccc34)[C@@](C(=O)OC)(c3cc4c(cc3OC)N(C=O)[C@H]3[C@@](O)(C(=O)OC)[C@H](OC(C)=O)[C@]5(CC)C=CCN6CC[C@]43[C@@H]65)C2)C1 [vincristine] + O=C(Nc1cccc(Cl)c1)Nc1ncc(CCNc2ncnc3ccsc23)s1 [SNS314] (first compound 0.0001 µM, partner dose 0.0008 µM)	358
Cc1ccc(Nc2nccc(N(C)c3ccc4c(C)n(C)nc4c3)n2)cc1S(N)(=O)=O [Pazopanib] + O=C(Nc1cccc(Cl)c1)Nc1ncc(CCNc2ncnc3ccsc23)s1 [SNS314] (first compound 0.4 µM, partner dose 0.0008 µM)	93.5
CC[C@]1(O)C[C@H]2CN(CCc3c([nH]c4ccccc34)[C@@](C(=O)OC)(c3cc4c(cc3OC)N(C=O)[C@H]3[C@@](O)(C(=O)OC)[C@H](OC(C)=O)[C@]5(CC)C=CCN6CC[C@]43[C@@H]65)C2)C1 [vincristine] + COc1ccc(-c2ccc3c(N4CCOCC4)nc(N4C[C@@H](C)O[C@@H](C)C4)nc3n2)cc1CO [KU0063794] (first compound 0.0001 µM, partner dose 0.02 µM)	84.5
